About 5,400 (1.8%) of roughly 300,000 compounds were called active. Inconclusive results, whose numbers are uncertain, are shown with a selection of clear calls. Calls follow the shape of the full dose curve; tested in HEK293 cells. A potency beside an inconclusive call is a rough fit, not a confirmed value.
Test: qHTS for inhibitors of binding or entry into cells for Marburg Virus
Settings: Marburg virus pseudotyped entry inhibition, cell reporter; activity change, negative = inhibition: at 37.8 µM (top of the series) unless noted
% is scaled to controls: 0 for no effect and ±100 for the full control effect; potency is read from the fitted curve at half-maximal effect.

Row | SMILES | activity change, negative = inhibition | Potency
1 | COc1cc(C(=O)NNC(=O)c2ccc3c(c2)OCCO3)cc(OC)c1OC | inactive: -6.37% | –
2 | O=C(CCCSc1ccccc1)Nc1ccc(Cl)c(S(=O)(=O)N2CCOCC2)c1 | – | inconclusive: 10 µM [inhibitor, partial curve]
3 | CCOC(=O)C(NC(=O)NCc1ccccc1OC)(OCC)C(F)(F)F (stereo unspecified) | inactive: 2.26% | –
4 | COc1ccccc1CCC(=O)Nc1ccc(S(=O)(=O)Nc2nccs2)cc1 | inactive: 24.3% | –
5 | CCOc1ccc2[nH]c3c(N4CCc5ccccc5C4)ncnc3c2c1 | – | active: 10 µM
6 | CCOc1ccc(N(CC(=O)NC2CCCC2)C(=O)CSc2nnc(COc3ccccc3)o2)cc1 | – | inconclusive: 29.1 µM [inhibitor, single point]
7 | CCN(CC)c1cc(C)c2cc(NC(=O)c3ccccc3Cl)ccc2n1 | – | inconclusive: 5.62 µM [activator, single point]
8 | Cc1cc(C(=O)CCC(=O)N2CCN(S(=O)(=O)c3ccccc3)CC2)c(C)s1 | inactive: -8.17% | –
9 | COc1ccc(CNC(=O)Nc2cccc(C(F)(F)F)c2)cc1OC | – | inconclusive: 17.8 µM [inhibitor, partial curve, poor fit]
10 | CCOC(=O)CC(NC(=O)c1cc2cc(Br)cc(OC)c2oc1=O)c1ccc(OC)cc1 (stereo unspecified) | inactive: 3.35% [at 46.1 µM] | –
11 | COc1ccc(Nc2nc(S(=O)(=O)c3ccc(C)cc3)c(Cl)s2)cc1 | – | inconclusive: 11.2 µM [inhibitor, partial curve, poor fit]
12 | O=C(CSCc1ccc(Cl)c(Cl)c1)Nc1c[nH]c(=O)[nH]c1=O | – | inconclusive: 1.41 µM [activator, partial curve]
13 | C(=N/Nc1cc(N2CCOCC2)nc(N2CCOCC2)n1)/c1ccccc1 | – | active: 2.51 µM
14 | C=CCn1c(SCC(=O)NCC2CCCO2)nnc1-c1ccncc1 (stereo unspecified) | – | inconclusive: 0.316 µM [inhibitor, single point]
15 | Cc1ccc(OCC(=O)NNC(=O)C2CCCO2)c(C)c1 (stereo unspecified) | inactive: 11.9% [at 46.1 µM] | –
16 | NC(=O)C1C(=O)c2ccccc2C1(C[N+](=O)[O-])c1ccccc1 (stereo unspecified) | inactive: -0.81% [at 46.1 µM] | –
17 | Cc1nnc(C)n1/N=C/c1ccc(-c2ccccc2Cl)o1 | inactive: -1.48% [at 46.1 µM] | –
18 | CCOn1c(=O)c(-c2ccccc2)[n+]([O-])c2ccccc21 | – | inconclusive: 14.1 µM [inhibitor, single point]
19 | COc1cccc(C(C#N)N2CCOCC2)c1 (stereo unspecified) | – | inconclusive: 0.112 µM [activator, full curve, poor fit]
20 | Cn1nnnc1SCC(=O)Nc1ccccc1Cc1ccccc1 | – | inconclusive: 0.398 µM [inhibitor, partial curve, poor fit]
21 | CCC(CC)c1nnc(NC(=O)C2CCCO2)s1 (stereo unspecified) | inactive: 24.3% [at 46.1 µM] | –

Part of the list above, reformatted.
Row	SMILES	activity change, negative = inhibition	Potency
7	CCN(CC)c1cc(C)c2cc(NC(=O)c3ccccc3Cl)ccc2n1	–	inconclusive: 5.62 µM [activator, single point]
8	Cc1cc(C(=O)CCC(=O)N2CCN(S(=O)(=O)c3ccccc3)CC2)c(C)s1	inactive: -8.17%	–
